Data reported in PubChem BioAssay AID2685 (National Center for Advancing Translational Sciences (NCATS), 2010).
Several values for one entry are separate records, joined by “and”; a condition that tells them apart may be missing. Equal values may be shown once. The list shows a part of the results. The main result of the screen is listed elsewhere. These columns were measured beside it and carry no call. Compounds called inactive in the main read-out are mostly missing here. Words in brackets tell the shape of the fitted curve; partial curves, single points and poor fits give uncertain potencies.

Experiment: qHTS Assay for Lipid Storage Modulators in Drosophila S3 Cells;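 on cell number change: cells counted by Cell Tracker Red CMTPX staining in the red channel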
Conditions: BODIPY lipid droplet fluorescence, 18-24 h; for cell number change: measured here: cell count max response, cells fed with added oleic acid
Method in brief: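 Drosophila S3 cells loaded with oleic acid (400 uM, as added) and compounds at several concentrations; lipid droplets imaged by 488-nm laser-scanning cytometry, 500–530 nm intensity and object ratio to cell channel. Percent activity normalized to 20 uM Triacsin C.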

[1] = measured here: cell number channel AC50, cells fed with added oleic acid
[2] = measured here: lipid fluorescence (Fed channel) AC50, cells fed with added oleic acid

| SMILES | cell number change | AC50 [1] | AC50 [2] |
| --- | --- | --- | --- |
| CC(C)O/C(=N\S(=O)(=O)c1ccc(Cl)cc1)c1ccccc1 | -31.5% | 0.13 µM [falling, full curve] | 0.731 µM [falling, partial curve, poor fit] |
| CC/C(=N\NC(C)=O)c1ccc(OC(F)F)cc1 | -11.7% | – | 6.51 µM [falling, full curve, poor fit] |
| COc1ccc(NC(=S)NNC(=O)COc2ccc(Cl)cc2Cl)cc1 | -25.2% | – | 29.1 µM [falling, single point] |
| CCC(CC)C1=NN2C(=N)/C(=C/c3ccc(OC(=O)c4ccco4)cc3)C(=O)N=C2S1 | -0.298% | – | 2.31 µM [rising, partial curve] |
| Cc1cccc(NC(=O)c2ccc(Cn3cc(C(F)(F)F)ccc3=O)cc2)c1 | 19.8% | – | 2.91 µM [falling, single point] |
| CC(NCc1ccc2c(c1)OCO2)c1ccccc1 (stereo not given) | 17.1% | – | 0.461 µM [rising, full curve, poor fit] |
| CCOc1cc(C(=O)OCc2ccc([N+](=O)[O-])cc2)ccc1OCC(=O)N1CCOCC1 | 37% | – | 7.31 µM [rising, partial curve] |
| O=C(NCc1cccs1)c1noc2c1CCCC2 | 9.04% | – | – |
| CCCn1c(C)cc(C(=O)CN2C(=O)c3cccc(N)c3C2=O)c1C | 31.4% | 2.06 µM [rising, single point] | – |
| CCOC(=O)C1CCCN(c2c(N3CCN(C)CC3)c(=O)c2=O)C1 (stereo not given) | -22.2% | 0.651 µM [falling, full curve, poor fit] | 11.6 µM [falling, partial curve] |
| O=C(Cn1nc2n(c1=O)-c1ccccc1SC2)N/N=C/c1ccncc1 | 39.3% | 3.26 µM [rising, full curve] | 2.91 µM [rising, full curve] |
| COc1ccc(S(=O)(=O)N[C@@H](CSCc2ccccc2)C(=O)O)cc1 | 15.9% | – | 6.51 µM [falling, single point] |
| O=S(=O)(Nc1nc2ccccc2nc1NCCO)c1cccc(Cl)c1 | 26.3% | – | – |
| COc1ccc(-c2c(-c3cc(OC)cc(OC)c3)n(C)c3ccc(-c4ccc(OC)nc4)cc23)cc1 | -8.28% | 0.00461 µM [rising, full curve, poor fit] | – |
| Cc1cc(C)c(NC(=O)CN2C(=O)NC3(CCCc4ccccc43)C2=O)c(Cl)c1 (stereo not given) | 2.81% | 0.116 µM [rising, full curve, poor fit] | – |
| COc1ccc(NC(=O)COC(=O)c2ccc(OC)c(S(=O)(=O)N3CCCC3)c2)cc1OC | -9.97% | 6.51 µM [rising, single point] | 6.51 µM [rising, partial curve] |
| COc1cc(/C=C(\C#N)C(=O)N2CCCCC2)ccc1O | -1.4% | – | – |
| Cc1cccc(C)c1NC(=O)COC(=O)Cc1ccsc1 | 10.3% | – | 0.326 µM [falling, single point] |
| O=C(O)c1cn(-c2ccc(F)cc2)c(=O)c2ccccc12 | -37.5% | 29.1 µM [falling, single point] | – |
| CC(=O)Nc1cccc(C(=O)OCCCOc2ccc(F)cc2)c1 | 36.5% | 12.6 µM [rising, partial curve, poor fit] | – |
| O=C(OCCCc1cc2ccccc2c(=O)o1)c1ccccc1C(F)(F)F | -7.01% | – | 0.517 µM [rising, single point] |
| CC(C)(C)OC(=O)N1CCN(C(=O)c2[nH]cnc2C(=O)Nc2cccc(Cl)c2)CC1 | -46.7% | 4.61 µM [falling, single point] | 29.1 µM [falling, single point] |
| CC(C(=O)c1ccc(-c2ccccc2)cc1)[n+]1cccc(C(N)=O)c1 (stereo not given) | -14.3% | – | – |
| O=C(COC(=O)c1ccc(Cl)s1)c1ccc[nH]1 | -16.1% | – | – |
| CCCOc1ccc(NC(=O)CC2C(=O)N(c3ccc(OCC)cc3)C(=S)N2C2CC2)cc1 (stereo not given) | 76.5% | 29.1 µM [rising, single point] | – |
| O=C(Nc1cccc(Cl)c1)c1cnn2cccnc12 | 234% | 9.2 µM [rising, partial curve] | 2.91 µM [rising, partial curve] |
| CC(C)(c1ccccc1)c1ccc(OCC2CO2)cc1 (stereo not given) | 13.3% | – | – |
| Cc1oc(CC(C)C)cc1C(=O)Nc1cccc2ccccc12 | -9.51% | 6.51 µM [rising, single point] | 23.1 µM [falling, single point] |
| CC1CCC(C(C)C)C(OC(=O)Cn2c(-c3ccc(Br)cc3)[n+](C)c3ccccc32)C1 (stereo not given) | -57.9% and -60.8% | 5.17 µM [falling, full curve] and 206 nM [falling, full curve, poor fit] | 5.8 µM [falling, full curve] and 1.3 µM [falling, full curve] |

Single entries from the results shown.
AC50 [1] with `O=C(Cn1nc2n(c1=O)-c1ccccc1SC2)N/N=C/c1ccncc1` is entered as 3.26 µM [rising, full curve]
AC50 [2] with `CC1CCC(C(C)C)C(OC(=O)Cn2c(-c3ccc(Br)cc3)[n+](C)c3ccccc32)C1` (stereo not given) is entered as 5.8 µM [falling, full curve] and 1.3 µM [falling, full curve]
